In general, IC50 refers to the concentration at which inhibition is half-maximal. A high value points to a need for much substance.

For the test, the system named is A549. Briefly: Cytotoxicity against human A549 cells by SRB protein staining method. It is filed as functional, cell-based. For orientation: In SRB staining, fixed cells bind dye roughly in proportion to their protein.

Consider `COc1cccc2c1C(=O)c1c(O)c3c(c(O)c1C2=O)C[C@@](O)(C(=O)CO)C[C@@H]3O[C@H]1C[C@H](N)[C@H](O)[C@H](C)O1` [DOXORUBICIN], for which inhibition was half-maximal at 1.2 µM (IC50).

The values above are taken from ChEMBL document CHEMBL3580598, “Limonoids and Triterpenoids from Dysoxylum mollissimum var. glaberrimum” (J Nat Prod, 2015).
